## Screening data, single-dose tests

Data taken from ChEMBL document CHEMBL3988442, “University of Dundee, Small-Polar-MMV Screening Library” (2021).

Values are the deposited “Percent Effect”, in %.
The record does not define 0% and 100%; most values in the screen are far below 50% and negative numbers occur (in some assays of this library far below -100).
The compounds are a random part of those screened.
Two or more numbers in one place are separate tests of the same structure; such repeats can differ widely.

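Whole-cell growth test on Mycobacterium tuberculosis, read after 4 days in a medium based on cholesterol and the lipid DPPC; the read-out is not stated. Compounds at 50 µM. Higher reads as more growth inhibition (inferred: compounds with an IC50 in retests scored well above the rest). About 69,000 compounds were tested under these conditions; 0.54% (about 370) showed 50% or more at least once.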

| SMILES | Percent Effect |
|---|---|
| `CC(C)c1nnc2n1CCN(Cc1nc(-c3ccoc3)no1)C2` | -25.67 |
| `COC(=O)CNC(=O)Cn1ccc2cccc(OC)c21` | -0.3794 |
| `Cc1nc(C(=O)N2CCCC(c3cc(C(F)(F)F)[nH]n3)C2)c[nH]1` (centres undefined) | 1.181 |
| `CCCNc1ncc(CN2CCOC(Cc3cccc(F)c3)C2)cn1` (centres undefined) | -10.88 |
| `Cc1n[nH]c(CN2CCN(c3ncnc4scc(C)c34)CC2)c1Cl` | 19.68 |
| `CCN(CC)Cc1nc2c(o1)CN(C(=O)c1ccc3[nH]ccc3c1)C2.O=CO` | 5.58 |
| `O=C(Cn1nc2ccccc2n1)N1CCCn2cncc2C1` | 4.869 |
| `Cc1ccc(C(=O)N2CCC3(CC2)CC(N2CCOCC2)C3)cc1.O=C(O)C(F)(F)F` | 27.88 |
| `Cc1ccc(C(=O)NS(=O)(=O)c2c(Cl)cccc2Cl)c(=O)[nH]1` | -3.401 |
| `CCOc1ccc(NC(=O)Cc2cc(C)[nH]n2)cc1CO` | 4.103 |
| `COc1ccc2cc(C3CN(C(=O)COC(C)C)CCO3)ccc2c1` (centres undefined) | -14.1 |
| `Cc1nn(C(C)(C)C)c(C)c1C(=O)NCC1(C(N)=O)CCOCC1` | 1.338 |
| `[H][C@]12CNC[C@@]1(C(=O)NCCOc1ccccc1F)CN(C(C)=O)C2` | 3.241 |
| `Cc1nc(C)n(CC2CN(Cc3nccs3)Cc3nccn3C2)n1.O=C(O)C(F)(F)F` (centres undefined) | -3.225 & -2.769 |
| `COc1ccc(C)cc1CC(=O)Nc1cc(C)n[nH]1` | 0.3163 & 21.41 |
| `CN(c1cccnn1)C1CCN(C(=O)c2ccc3c(c2)COC3)CC1` | -32.21 |
| `CCc1nc(N)nc(N(C)Cc2nncn2CCOC)c1C` | 12.13 |
| `O=C(NCCn1ccnc1)c1cc(Br)c[nH]1` | -5.504 |
| `COCc1nn(CC2CC2)c2c1CN(Cc1cccs1)CC2.O=C(O)C(F)(F)F` | 5.848 |
| `CC(Cn1cccn1)NCc1csc(-c2ncccn2)n1` (centres undefined) | -35.38 |
| `CN(Cc1ccco1)Cc1cncc2c1CCN(c1ncccn1)C2.Cl.Cl` | -4.105 |
| `CC(C)CN1CCC2(C1)CN(S(=O)(=O)c1cn(C)cn1)C2.O=C(O)C(F)(F)F.O=C(O)C(F)(F)F` | -21.69 |
| `CN(C(=O)NCc1ccncc1)C1CCN(c2ccccc2)C1=O` (centres undefined) | 7.242 |
| `COCc1cc(N(C)Cc2ccccn2)nc(C(C)(C)C)n1` | -3.265 |
| `CC(C)N(Cc1cccnc1)C(=O)CSc1ccc(C#N)cc1` | 1.367 |
| `COc1ccc(CN(C)[C@@H]2CN(S(=O)(=O)C(C)C)C[C@H]2O)cc1` | 2.011 & -1.193 |
| `COCCCC1(CO)CCCN(Cc2cccc(C#N)c2)C1` (centres undefined) | 0.02717 & 8.752 |
| `COCCN1CC(C(=O)NCc2ccc(C)s2)CC1=O` (centres undefined) | 6.12 |
| `CC(=O)NCCNC(=O)C1(Oc2cccnc2C)CCNCC1` | -8.879 |
| `CN(Cc1csc2ccccc12)C(=O)NC1CCS(=O)(=O)C1` (centres undefined) | -14.98 |
| `CN(Cc1cccc(C#N)c1)S(=O)(=O)N1CCOCC1` | -2.963 |
| `O=c1[nH]c(NCc2cccc(-c3ccccc3)c2)nc2c1CCNC2` | 16.5 |
| `CCN(C)C(=O)c1ccnn1-c1ccc2ccccn12` | -7.043 |
| `Cl.c1nc(CCC2CCCN2)cc(N2CCCOCC2)n1` (centres undefined) | -25.98 |
| `Cc1ccc(CN(C)Cc2nc3c(cnn3C)c(=O)[nH]2)c(C)c1` | -2.626 |
| `Cc1oc(C)c(C(=O)NS(=O)(=O)c2ccc3c(c2)OCCCO3)c1C` | -14.38 |
| `COc1coc(CN2CCCC(CCc3ccc(F)c(F)c3)C2)cc1=O` (centres undefined) | 53.81 |
| `Cc1nc(N2CCCC2)nc2c1CCN(C(=O)N(C)C)CC2` | 0.5345 |
| `Oc1cccc(CN2CCN(c3nccc(CCC(F)(F)F)n3)CC2)c1` | -6.387 |
| `CCN(CC(=O)NC)C(=O)Cc1nc(-c2ccco2)oc1C` | 0.6074 |
| `Cc1cccc(CN2C(=O)CCC23CCN(Cc2cccn2C)CC3)n1.O=C(O)C(F)(F)F.O=C(O)C(F)(F)F` | -8.858 |
| `COc1ccc(S(=O)(=O)NCCCc2ccc(N(C)C)cc2)cc1Cl` | 6.609 |
| `Cn1cc(CNc2cnn(CCO)c2)c(-c2ccncc2)n1` | -0.5434 |
| `O=C(O)C(F)(F)F.O=C(O)C(F)(F)F.O=C(O)C(F)(F)F.c1cncc(CN2CCC3(COCCN(C4CCOCC4)C3)C2)c1` (centres undefined) | 6.091 |
| `CC(C)N(CCNC(=O)c1[nH]nc2ccc(I)cc12)C(C)C` | 80.96 |
| `Cc1ccc(C(=O)NCCCNS(C)(=O)=O)cc1-n1cccc1` | -1.893 |
| `[H][C@@]12CCN(Cc3ccc(C)o3)C[C@]1([H])OCCN(c1cccnc1)C2=O` | -19.32 |
| `O=C(O)C(F)(F)F.O=C(O)C(F)(F)F.[H][C@@]12CCN(Cc3ccsc3)C[C@]1([H])[C@@H](CN(C)Cc1ccco1)OC2` | 0.6607 |

5 of the entries, repeated:

CC(Cn1cccn1)NCc1csc(-c2ncccn2)n1 (centres undefined) read -35.38%.
COc1ccc(CN(C)[C@@H]2CN(S(=O)(=O)C(C)C)C[C@H]2O)cc1 read 2.011% & -1.193%.
Cl.c1nc(CCC2CCCN2)cc(N2CCCOCC2)n1 (centres undefined) read -25.98%.
[H][C@@]12CCN(Cc3ccc(C)o3)C[C@]1([H])OCCN(c1cccnc1)C2=O read -19.32%.
Cc1ccc(C(=O)NCCCNS(C)(=O)=O)cc1-n1cccc1 read -1.893%.